Results from PMC3419192.
No constants are given. Whether binding was seen depends on the method and setting. For part of these data: In cells and extracts the contact can be indirect. Some entries that bind do so weakly or less than the wild type. For part of these data: Sequences can lack the tags named with a protein. Each block holds one binder with its values, some of them ahead of it.

Chains of the proteins cited; added tags and fusions are not shown.
UniProt P23804: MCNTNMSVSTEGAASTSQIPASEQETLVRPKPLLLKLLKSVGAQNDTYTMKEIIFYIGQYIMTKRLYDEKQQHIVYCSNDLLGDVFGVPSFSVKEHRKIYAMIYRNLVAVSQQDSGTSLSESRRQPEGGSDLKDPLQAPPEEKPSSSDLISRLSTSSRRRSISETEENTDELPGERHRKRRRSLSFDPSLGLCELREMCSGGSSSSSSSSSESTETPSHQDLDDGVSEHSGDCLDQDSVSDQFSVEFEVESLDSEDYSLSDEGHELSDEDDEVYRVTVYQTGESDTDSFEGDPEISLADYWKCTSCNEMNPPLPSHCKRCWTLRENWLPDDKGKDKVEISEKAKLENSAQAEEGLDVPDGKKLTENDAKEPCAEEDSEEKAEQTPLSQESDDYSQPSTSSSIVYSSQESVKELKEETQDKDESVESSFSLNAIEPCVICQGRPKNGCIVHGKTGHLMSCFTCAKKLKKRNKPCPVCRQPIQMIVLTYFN

What was measured:
[1] = biological target: T1, FLAG-necdin, full-length (pCMV-FLAG-Necdin) (UniProt P25233); experiment: co-IP; protein A agarose beads with anti-CCAR1, anti-necdin or control IgG; 1 mg protein extract of transfected C2C12 or of primary myoblasts in RIPA buffer, overnight at 4 °C; wash buffer with 500 mM NaCl, 0.1% SDS, 1% NP-40; western blot
T1 sequence: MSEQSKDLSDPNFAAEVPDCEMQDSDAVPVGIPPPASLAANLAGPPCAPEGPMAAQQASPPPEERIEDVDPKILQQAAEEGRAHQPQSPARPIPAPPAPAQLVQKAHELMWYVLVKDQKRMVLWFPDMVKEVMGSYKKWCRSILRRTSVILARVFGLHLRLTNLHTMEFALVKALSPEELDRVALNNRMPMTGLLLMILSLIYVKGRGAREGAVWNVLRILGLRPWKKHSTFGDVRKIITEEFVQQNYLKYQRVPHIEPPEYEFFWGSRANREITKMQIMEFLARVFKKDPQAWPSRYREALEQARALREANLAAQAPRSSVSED

[2] = biological target: T2, necdin, endogenous in primary myoblasts (mouse (endogenous in primary myoblasts of C57/Bl6 mice)) (UniProt P25233); experiment: as above
T2 sequence: T1 sequence

[3] = biological target: MDM2, endogenous in Tibialis anterior muscle (mouse (endogenous in Tibialis anterior muscle)) (UniProt P23804); experiment: co-IP; Dynabeads Protein A with anti-CCAR1, anti-MDM2, anti-necdin or unspecific IgG; 1.5 mg extract of C2C12 transfected with pCMV-FLAG-Necdin, pCMV-Tag3b-Myc-MDM2 and pSG5-HA-CCAR1, or of Tibialis anterior of tgMlcNec mice, 5 h at 4 °C; western blot
[4] = biological target: Myc-MDM2, full-length (pCMV-Tag3b-Myc-MDM2) (UniProt P23804); experiment: as above
[5] = biological target: T3, CCAR1/CARP1, endogenous in mouse myogenic cells and muscle (mouse (endogenous in C2C12, primary myoblasts and Tibialis anterior muscle)) (UniProt Q8CH18); experiment: co-IP; protein A agarose beads with anti-CCAR1, anti-necdin or control IgG; 1 mg protein extract of transfected C2C12 or of primary myoblasts in RIPA buffer, overnight at 4 °C; wash buffer with 500 mM NaCl, 0.1% SDS, 1% NP-40; western blot
T3 sequence: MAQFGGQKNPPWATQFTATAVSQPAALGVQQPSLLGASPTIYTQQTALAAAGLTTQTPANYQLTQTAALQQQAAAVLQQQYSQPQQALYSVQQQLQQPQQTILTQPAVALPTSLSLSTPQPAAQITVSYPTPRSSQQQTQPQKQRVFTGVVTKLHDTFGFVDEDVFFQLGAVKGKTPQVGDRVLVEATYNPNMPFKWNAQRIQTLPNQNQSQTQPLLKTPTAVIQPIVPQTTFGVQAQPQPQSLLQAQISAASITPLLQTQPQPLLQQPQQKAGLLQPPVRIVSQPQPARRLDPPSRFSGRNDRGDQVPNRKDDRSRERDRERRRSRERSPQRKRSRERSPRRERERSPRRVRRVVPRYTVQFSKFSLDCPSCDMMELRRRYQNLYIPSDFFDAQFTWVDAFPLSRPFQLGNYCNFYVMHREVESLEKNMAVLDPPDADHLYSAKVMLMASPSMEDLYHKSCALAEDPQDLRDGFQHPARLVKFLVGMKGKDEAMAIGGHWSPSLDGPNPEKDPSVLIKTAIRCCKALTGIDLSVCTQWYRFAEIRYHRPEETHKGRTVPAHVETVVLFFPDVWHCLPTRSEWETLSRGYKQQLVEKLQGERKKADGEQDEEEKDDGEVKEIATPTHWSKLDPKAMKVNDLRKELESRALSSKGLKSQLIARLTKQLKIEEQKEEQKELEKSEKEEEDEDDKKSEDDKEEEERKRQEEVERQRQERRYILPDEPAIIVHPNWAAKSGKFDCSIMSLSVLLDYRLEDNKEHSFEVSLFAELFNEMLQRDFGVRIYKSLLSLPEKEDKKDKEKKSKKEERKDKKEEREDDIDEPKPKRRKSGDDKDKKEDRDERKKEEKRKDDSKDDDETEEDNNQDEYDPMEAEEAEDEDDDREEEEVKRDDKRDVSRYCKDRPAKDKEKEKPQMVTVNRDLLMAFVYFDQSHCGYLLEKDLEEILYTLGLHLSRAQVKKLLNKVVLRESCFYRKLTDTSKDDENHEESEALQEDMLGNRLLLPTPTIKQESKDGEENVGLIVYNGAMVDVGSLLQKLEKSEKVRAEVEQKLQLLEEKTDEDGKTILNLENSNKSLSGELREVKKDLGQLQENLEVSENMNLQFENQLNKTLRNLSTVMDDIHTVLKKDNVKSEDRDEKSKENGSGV

[6] = biological target: T4, HA-CCAR1 (pSG5-HA-CCAR1) (UniProt Q8CH18); experiment: co-IP; Dynabeads Protein A with anti-CCAR1, anti-MDM2, anti-necdin or unspecific IgG; 1.5 mg extract of C2C12 transfected with pCMV-FLAG-Necdin, pCMV-Tag3b-Myc-MDM2 and pSG5-HA-CCAR1, or of Tibialis anterior of tgMlcNec mice, 5 h at 4 °C; western blot
T4 sequence: T3 sequence

[7] = biological target: T3, CCAR1/CARP1, endogenous in mouse myogenic cells and muscle (mouse (endogenous in C2C12, primary myoblasts and Tibialis anterior muscle)); experiment: as above
[8] = biological target: T5, necdin, full-length, fused to the Gal4 DNA binding domain (pGBKT7-Necdin) (UniProt P25233); experiment: two-hybrid; mating: pGAD-Rec CCAR1 in AH109 mat-a, pGBKT7-Necdin in Y187 mat-alpha; diploids plated on SD/-Leu, -His, -Trp, -Ade
T5 sequence: T1 sequence

[9] = biological target: T5, necdin, full-length, fused to the Gal4 DNA binding domain (pGBKT7-Necdin); experiment: two-hybrid; library screen in S. cerevisiae AH109: pGBKT7-necdin co-transformed with a cDNA library of primary myoblasts and linearized pGAD-Rec; selection on SD -Leu -Trp -His, then -Leu -His -Trp -Ade with X-Gal

binding [5]: binds
B4: necdin, endogenous in primary myoblasts (protein, UniProt P25233 1-325)
chain: T1 sequence

binding [7]: binds
binding [3]: binds
B5: necdin in Tibialis anterior muscle of tgMlcNec mice (necdin gain of function) (protein, UniProt P25233 1-325)
chain: T1 sequence

Continued, binder first:

B1: CCAR1/CARP1, endogenous in mouse myogenic cells and muscle (protein, UniProt Q8CH18 1-1146)
chain: T3 sequence
binding [1]: binds
binding [2]: binds
binding [3]: binds

B2: HA-CCAR1 (pSG5-HA-CCAR1) (protein, UniProt Q8CH18 1-1146)
chain: T3 sequence
binding [4]: binds

B3: FLAG-necdin, full-length (pCMV-FLAG-Necdin) (protein, UniProt P25233 1-325)
chain: T1 sequence
binding [5]: binds
binding [6]: binds
binding [4]: binds

B6: CCAR1/CARP1 amino-acids 637-822, clone from the myoblast cDNA library fused to the Gal4 activation domain (pGAD-Rec CCAR1) (domain or fragment, UniProt Q8CH18 637-822)
chain: KVNDLRKELESRALSSKGLKSQLIARLTKQLKIEEQKEEQKELEKSEKEEEDEDDKKSEDDKEEEERKRQEEVERQRQERRYILPDEPAIIVHPNWAAKSGKFDCSIMSLSVLLDYRLEDNKEHSFEVSLFAELFNEMLQRDFGVRIYKSLLSLPEKEDKKDKEKKSKKEERKDKKEEREDDIDEP
binding [8]: binds
binding [9]: binds
